The record followed here is patent US5912183A (Pharmacia & Upjohn S.p.A., priority 1993, dated 1999).

HELM strings list residues between dots; [ac] is acetyl, [am] amide, other brackets name non-standard units.

The nature of this data set: peptide synthesis. The following applies: whole synthesis, HPLC peak relative integration at 225 nm, polihydrated polytrifluoroacetates.

Turning to “PEPTIDE1{[pTyr].V.H.V.N.A.T.[pTyr].V.N.V.K}$$$$V2.0”, the “final HPLC purity” value was determined as 95.9%.
